The assay has as its target A. thaliana TFII (Transcription Factor II) (LexA DNA-binding domain fusion) (A. thaliana). The assay can be described thus: two-hybrid; Matchmaker LexA Two-Hybrid System (Clontech); bait fused to the LexA DNA-binding domain, prey fused to the B42 activation domain.

Results are given in words; binding and its absence hold for the method and conditions named. A result given as binding can be weak or reduced; the word gives no strength. Sequences can lack the tags named with a protein.

B1: Bin4 (B42 activation domain fusion) (protein, UniProt Q9FLU1 1-454)
chain: MSSSSREGSPDWLRSYEAPMTTSLLSLSSSDDDSPYRESEVISSLPLPDDDGDDIVVLETESVELLTRKNSETKVVTKQVSIEQVFSRKKKADASLNLEDSCAGKENGNNVDCEKLSSKHKDAQGGADSVWLVSSDSEPSSPIKQEVTVSTEKDADFVLEATEEEPAVKTVRKEKSPKTKSKSSRKTPKEGNSAQEILKTEDKDTDTTIAEQVTPEKSPKTKSKSSRKTPKEENCAQEILKTEDKDKDTDTDTIIAEEVTTDQKIKPSSGSSSRLPLVLSEKVNRTKVLVECEGDSIDLSGDMGAVGRVVVSDTTGDMYLDLKGTIYKSTIIPSRTFCVVNVGQTEAKIEAIMNDFIQLIPQSNVYEAETMVEGTLEGFTFESDDESNKNAKTAVKPADQSVGTEEETNTKAKPKAKAKGETVIGKKRGRPSKEKQPPAKKARNSAPKKPKAKK
In the case of B1, the binding entry was “binds”.

Values taken from article PMC2845627.
